The supplement of paper PMC9694430
Only a part is listed here, and it is no random draw.

Chains of the proteins cited; added tags and fusions are not shown. A line that says so, or that is headed by a name, gives the form on record, which may keep a tag or linker.
LOC_OS06G16330-cb003, as listed by the source: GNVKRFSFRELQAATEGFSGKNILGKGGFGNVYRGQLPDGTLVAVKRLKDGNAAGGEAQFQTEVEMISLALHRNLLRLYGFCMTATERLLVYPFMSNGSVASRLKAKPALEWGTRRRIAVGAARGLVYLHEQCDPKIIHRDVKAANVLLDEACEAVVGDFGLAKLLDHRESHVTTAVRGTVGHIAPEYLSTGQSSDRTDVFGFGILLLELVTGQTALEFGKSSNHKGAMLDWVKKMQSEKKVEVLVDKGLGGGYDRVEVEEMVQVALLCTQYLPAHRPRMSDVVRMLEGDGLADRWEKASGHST

Legend:
Assay in all cases: thermal shift delta Tm vs DMSO control; higher = stronger stabilization (binding)
Conditions in all cases: 12.5 µM; protein concentration 2 µM
[1] = tested on: T1, LOC_OS01G52050-cb004
T1 sequence (whole entry): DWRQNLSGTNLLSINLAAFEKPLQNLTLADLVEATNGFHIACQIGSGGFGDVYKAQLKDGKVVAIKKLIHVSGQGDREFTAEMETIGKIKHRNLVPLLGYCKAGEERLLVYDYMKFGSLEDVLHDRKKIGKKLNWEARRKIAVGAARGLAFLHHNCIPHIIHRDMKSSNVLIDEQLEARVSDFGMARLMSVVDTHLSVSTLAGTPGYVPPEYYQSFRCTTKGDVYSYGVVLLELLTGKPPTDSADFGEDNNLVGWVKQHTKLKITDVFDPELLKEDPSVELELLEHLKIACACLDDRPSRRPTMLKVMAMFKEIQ
How it was run: (§1)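 Rice kinase domain constructs were expressed in E. coli, purified, and tested by differential scanning fluorimetry with compound added in DMSO. Each well of a 96-well plate held 19.5 μl of 2 μM kinase in 100 mM potassium phosphate pH 7.5, 150 mM NaCl, 10% glycerol and 5 × SYPRO Orange, and fluorescence was read from 25°C to 95°C at 0.05°C/s. The melting temperature shift is the mean of triplicates, taken against protein with DMSO alone after Boltzmann fitting.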

[2] = tested on: LOC_OS01G70970-cb002
How it was run: as §1

[3] = tested on: T2, LOC_OS04G38480-cb003
T2 sequence (whole entry): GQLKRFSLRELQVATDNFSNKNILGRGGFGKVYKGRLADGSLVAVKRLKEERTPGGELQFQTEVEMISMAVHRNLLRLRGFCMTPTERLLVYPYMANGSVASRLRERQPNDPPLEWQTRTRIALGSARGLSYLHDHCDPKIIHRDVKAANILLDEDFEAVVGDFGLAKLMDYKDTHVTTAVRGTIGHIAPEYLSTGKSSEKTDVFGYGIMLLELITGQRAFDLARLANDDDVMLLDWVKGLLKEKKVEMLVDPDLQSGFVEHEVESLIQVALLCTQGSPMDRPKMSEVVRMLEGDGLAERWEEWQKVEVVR
How it was run: as §1

[4] = tested on: T3, LOC_OS04G41100-cb001
T3 sequence (whole entry): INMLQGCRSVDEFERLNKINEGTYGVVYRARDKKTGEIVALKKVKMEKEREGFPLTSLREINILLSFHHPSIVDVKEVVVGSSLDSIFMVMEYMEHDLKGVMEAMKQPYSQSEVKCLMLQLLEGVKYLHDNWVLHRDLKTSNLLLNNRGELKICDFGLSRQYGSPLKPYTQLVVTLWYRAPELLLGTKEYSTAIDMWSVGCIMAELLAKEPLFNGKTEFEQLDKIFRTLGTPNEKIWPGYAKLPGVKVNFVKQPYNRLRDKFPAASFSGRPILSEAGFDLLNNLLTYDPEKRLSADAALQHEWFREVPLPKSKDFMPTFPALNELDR
How it was run: as §1

[5] = tested on: LOC_OS05G43570-cb004
How it was run: as §1

[6] = tested on: LOC_OS06G16330-cb003
How it was run: as §1

[7] = tested on: T4, LOC_OS06G22820-cb001
T4 sequence (whole entry): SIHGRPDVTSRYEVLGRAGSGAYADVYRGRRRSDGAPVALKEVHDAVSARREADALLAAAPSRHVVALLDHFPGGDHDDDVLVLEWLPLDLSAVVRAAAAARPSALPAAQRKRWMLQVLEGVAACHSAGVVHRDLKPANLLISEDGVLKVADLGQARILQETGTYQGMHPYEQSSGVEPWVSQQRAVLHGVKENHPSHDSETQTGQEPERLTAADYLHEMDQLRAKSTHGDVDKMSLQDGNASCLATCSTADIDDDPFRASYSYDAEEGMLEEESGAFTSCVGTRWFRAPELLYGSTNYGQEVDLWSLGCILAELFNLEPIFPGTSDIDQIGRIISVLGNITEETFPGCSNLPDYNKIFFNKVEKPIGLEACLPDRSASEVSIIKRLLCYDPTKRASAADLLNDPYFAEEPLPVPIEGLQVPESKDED
How it was run: as §1

[8] = tested on: LOC_OS03G27990-cb004
How it was run: as §1

[9] = tested on: LOC_OS04G57630-cb004
How it was run: as §1

[10] = tested on: LOC_OS07G06570-cb004
How it was run: as §1

Compound	thermal shift delta Tm [1]	thermal shift delta Tm [2]	thermal shift delta Tm [3]	thermal shift delta Tm [4]	thermal shift delta Tm [5]	thermal shift delta Tm [6]	thermal shift delta Tm [7]	thermal shift delta Tm [8]	thermal shift delta Tm [9]	thermal shift delta Tm [10]
Cc1nc2c(-c3cnc(N)nc3)nc(N3CCOCC3)nc2n1C(C)C	0.19 °C	0.55 °C	1.12 °C	0.63 °C	0.55 °C	0.55 °C	1.16 °C	–	–	–
Cc1ccccc1-n1c(Cn2nc(-c3cccc(O)c3)c3c(N)ncnc32)nc2cccc(C)c2c1=O	0.22 °C	–	0.29 °C	0.51 °C	–	-0.46 °C	0.61 °C	-0.29 °C	0.22 °C	0.61 °C
